Some of the results follow.
Biological target: OsWRKY34 (Oryza sativa, UniProt Q0JBA9 1-250)
Test: protein-binding microarray (RPBM); PBS, 2% BSA, 51.3 ng/ul salmon testes DNA, 50 uM zinc acetate, 200 nM TF, 25 C, 1 h; high values mean tight binding
Details: protein: recombinant; tags: N-terminal polyhistidine and DsRed monomer fusion (pET32a); label: CyDye5-dUTP incorporated in the synthesized complementary strand; 3' TTTTT single-stranded linker to array surface; dsDNA, one strand shown
Method in brief: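 Polyhistidine-tagged DsRed fusions of transcription factors, joined at the N-terminus, were expressed in E. coli BL21-CodonPlus and isolated on Ni–NTA. They were incubated at 200 nM for 1 h at 25 °C on a custom Agilent array, double-stranded and BSA-blocked, in PBS with 2% BSA, salmon testes DNA and 50 µM zinc acetate. The binding signal is per-feature fluorescence intensity (arbitrary units) read on an Axon 4000B scanner after washing.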

By UniProt entry, the sequences of proteins in these tests, tags left out.
UniProt Q0JBA9, entry or part of it: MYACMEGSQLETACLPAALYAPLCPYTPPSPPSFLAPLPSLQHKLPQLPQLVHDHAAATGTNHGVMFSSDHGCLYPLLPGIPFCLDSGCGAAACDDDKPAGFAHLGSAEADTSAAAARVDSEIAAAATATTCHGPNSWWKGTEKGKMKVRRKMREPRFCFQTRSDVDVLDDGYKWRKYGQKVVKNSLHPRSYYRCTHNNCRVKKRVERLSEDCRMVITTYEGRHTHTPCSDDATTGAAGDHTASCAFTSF

Sequence	binding signal
ATATATGATTTGGACTTGCTCTAACTATTTTGTTTGAACACGGAGTCACCTAGTGCAG	8450 fluorescence intensity (a.u.)
ACACCTCGACAAGTAGACCACCGCCCTGATCACTCGCCGCCGGAGTCACCTAGTGCAG	9320 fluorescence intensity (a.u.)
AATTGTTTACTGATCTTTGCGTTAATGATGATTGTGCCCTCGGAGTCACCTAGTGCAG	8660 fluorescence intensity (a.u.)
CCGTACTACCCCATCATGGGACATCTCTCTTGTGGCCATCCGGAGTCACCTAGTGCAG	10900 fluorescence intensity (a.u.)
TCGTATAAACACACACTCACACCCTTACGAACGTACGCTTCGGAGTCACCTAGTGCAG	8370 fluorescence intensity (a.u.)
GCACATTCTCCTCTTCTTCTTCCCGTGTTCTTGTTCTTCTCGGAGTCACCTAGTGCAG	10100 fluorescence intensity (a.u.)
AACCCTCGCGTGCGTCGCGTCGTCTCCTCTCTCTCTCTCTCGGAGTCACCTAGTGCAG	8420 fluorescence intensity (a.u.)
TATTGGGTTCCTAAGCCCTTTTTGTTTCCAGAGGCTTCTGCGGAGTCACCTAGTGCAG	9470 fluorescence intensity (a.u.)
AGTTTTGTACTAGGTTAAGCATTTCTTTCCTTTGACTGTCCGGAGTCACCTAGTGCAG	8090 fluorescence intensity (a.u.)
AGTCATCCACTATCTCCTTCCATTTCCTTCAGAGGAGCACCGGAGTCACCTAGTGCAG	10300 fluorescence intensity (a.u.)
GACCACCGCTCCTCGGCTGGAGGGAGCCCTCGTCGCCGGCCGGAGTCACCTAGTGCAG	8750 fluorescence intensity (a.u.)
AGTCTTGAAGACTGAGGCAAAGTCTGTTATCTTAATCGATCGGAGTCACCTAGTGCAG	9140 fluorescence intensity (a.u.)
ACTCCCACCACCGTCACGTCGCCCCTCTGCTCTCTGCACTCGGAGTCACCTAGTGCAG	8190 fluorescence intensity (a.u.)
ATCTGAAACCTTCACTTGTGTTCATGTAAACAGCAAGCCTCGGAGTCACCTAGTGCAG	8540 fluorescence intensity (a.u.)
GTCTTCAATGAGCTAAGGTCCTTTTTATTTAGGCTTTTTACGGAGTCACCTAGTGCAG	11300 fluorescence intensity (a.u.)
GTTCTGACTGTTGTAGGGTATACTGTTTGGTTGTTCTTTACGGAGTCACCTAGTGCAG	11500 fluorescence intensity (a.u.)
ATTTGTGGATGTATAAGTGTGGTGTTGGGTATGTACGCGCCGGAGTCACCTAGTGCAG	8640 fluorescence intensity (a.u.)
CTGCGCCTGCGTCTGCGCCACCGTCACCTTCGCGGCCGCGCGGAGTCACCTAGTGCAG	10700 fluorescence intensity (a.u.)
CCCTGGTTTCCGTGTCCAATGTTTGACCGTCCGTCTTATTCGGAGTCACCTAGTGCAG	10200 fluorescence intensity (a.u.)
TTTATCCCTTTGAATCCGGCGCGAATTTGGATTCATTTTCCGGAGTCACCTAGTGCAG	10600 fluorescence intensity (a.u.)
GGCGTGGGGAGGCGGAGGGAGGGAGGGGAGCGGCTGCGCACGGAGTCACCTAGTGCAG	17700 fluorescence intensity (a.u.)

Taken from above:
Under binding signal, ACTCCCACCACCGTCACGTCGCCCCTCTGCTCTCTGCACTCGGAGTCACCTAGTGCAG has 8190 fluorescence intensity (a.u.)
Under binding signal, GTTCTGACTGTTGTAGGGTATACTGTTTGGTTGTTCTTTACGGAGTCACCTAGTGCAG has 11500 fluorescence intensity (a.u.)
Under binding signal, CTGCGCCTGCGTCTGCGCCACCGTCACCTTCGCGGCCGCGCGGAGTCACCTAGTGCAG has 10700 fluorescence intensity (a.u.)

The listing continues.

Sequence	binding signal
CTAGCATGGAATTGTTTAGCCTCACTATCTTCATTTGTCCCGGAGTCACCTAGTGCAG	10300 fluorescence intensity (a.u.)
ATCTATCTATGTACCTACTGCAAAAGGCTGCTGATTCGTGCGGAGTCACCTAGTGCAG	10800 fluorescence intensity (a.u.)
CAAGTGGTTTGACCGTGGTTTGACTGACGTGGGATGCTTTCGGAGTCACCTAGTGCAG	10700 fluorescence intensity (a.u.)
ATCCGTTTCTTGCTTTGACTCACTATCTGATCCTAATTACCGGAGTCACCTAGTGCAG	8800 fluorescence intensity (a.u.)
TGACTGCCATACTACTATTCCAAAGTTCATAGTATTTCCACGGAGTCACCTAGTGCAG	8040 fluorescence intensity (a.u.)
CCTCGCCTCGCCTCCCCACTTCGCTTCACTGCTTCCCTACCGGAGTCACCTAGTGCAG	11100 fluorescence intensity (a.u.)
AGTTTTTGTTTGTCAATTTTGATCTTTCGTCTTATTTAAACGGAGTCACCTAGTGCAG	11200 fluorescence intensity (a.u.)
GACACCGTTGACTTTTTAAGTACGTGTTTGACCATTCGTCCGGAGTCACCTAGTGCAG	43700 fluorescence intensity (a.u.)
CCTATCAGTACTGTCACATCTGGTGTGTGTGTGTCCAACTCGGAGTCACCTAGTGCAG	9170 fluorescence intensity (a.u.)
CTGAGTTCTGTATTGGATCAGCTTCATGTTATCGGCATCACGGAGTCACCTAGTGCAG	8450 fluorescence intensity (a.u.)
TCCAGCTTCCTTGTCCGCTACAGCTGGCGTGGTTTTTATGCGGAGTCACCTAGTGCAG	9990 fluorescence intensity (a.u.)
CTAAATAGGCCTTAGTCACCTAAAGTTGACTAAACCACATCGGAGTCACCTAGTGCAG	10500 fluorescence intensity (a.u.)
TTGTGTGTATATGTAACTTTAAGATTTGTGATGTTACTTTCGGAGTCACCTAGTGCAG	8250 fluorescence intensity (a.u.)
GTTCCCGCCGACGAGCTCTTCCCCTTCCCGTCTTTCTTCCCGGAGTCACCTAGTGCAG	8700 fluorescence intensity (a.u.)
TCTCAGCGGCCCGAACCTGTCTACGTCGCCCGTGTCTTGTCGGAGTCACCTAGTGCAG	11200 fluorescence intensity (a.u.)
CTATTGCTTAGGATCTTCTTCACTCTTAGTACCAGCGAATCGGAGTCACCTAGTGCAG	8120 fluorescence intensity (a.u.)
GGTGTTTTTTAGGGTGCGATTTTGTTTTGCGTTTTGATCTCGGAGTCACCTAGTGCAG	10900 fluorescence intensity (a.u.)
AGCTAAACATTTCACTTTATCCTTGGCGGGCACATGATAACGGAGTCACCTAGTGCAG	11200 fluorescence intensity (a.u.)
AACGGGGTCCAGTAATCTGTAATCCAGTCATGCCATTCATCGGAGTCACCTAGTGCAG	8390 fluorescence intensity (a.u.)
TACGGCTGATCACATAAAACATTAGTTCATTACCGGTAACCGGAGTCACCTAGTGCAG	8680 fluorescence intensity (a.u.)
TTGCGGTTTAGGGTTATGGATTAGATTCGGAACAATTTTACGGAGTCACCTAGTGCAG	8140 fluorescence intensity (a.u.)

— article PMC7819943, “Rice protein-binding microarrays: a tool to detect cis-acting elements near promoter regions in rice”
